PubChem BioAssay AID1159578 | Peter MacCallum Cancer Centre, 2015
In all, the deposit lists about 18,000 reagents; shown is a part drawn at random. About 1,030 of them (5.7%) count as active. 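Inactive calls also include pools with fewer than 3300 nuclei, whose migration was not assessed.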 Raw values are not corrected between plates.

- Assay: 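Genome-wide hunt for genes controlling movement of lymphatic endothelial cells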 (primary screen)
- System: human lymphatic endothelial cells
- Reagent: siRNA pool against human genes, 40 nM
- Duration: 48 h after transfection
- Read-out: 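High-content imaging of dye-stained cells in a scratch assay measures filled wound area and nuclei per well; duplicate means given as ratio to mock and robust z-score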
- Scale: migration robust z-score: higher = faster migration into the scratch; migration relative to mock: higher = more scratch area covered than mock; nuclei per well: higher = more cells in the well
- Call rule: 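Migration changed when robust z exceeds 2 or falls below -2 and mean nuclei number is at least 3300; otherwise not called changed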
- Meaning of the calls: active = migration changed; inactive = no migration change, or too few cells

| gene knocked down | migration robust z-score | migration class with cell-count check | migration relative to mock | nuclei per well, duplicate mean | Outcome |
| --- | --- | --- | --- | --- | --- |
| SFXN5 | 0.52 | migration z between -2 and 2; enough cells | 0.9 | 5133 | inactive |
| KRTAP10-8 | -1.81 | migration z between -2 and 2; enough cells | 0.42 | 5639 | inactive |
| SLITRK2 | 0.86 | migration z between -2 and 2; enough cells | 1.1 | 6789 | inactive |
| CYTL1 | 1.64 | migration z between -2 and 2; enough cells | 1.31 | 7188 | inactive |
| CTHRC1 | -0.04 | migration z between -2 and 2; enough cells | 0.88 | 5433 | inactive |
| RPL37 | 0.74 | migration z between -2 and 2; enough cells | 1.08 | 3928 | inactive |
| SWT1 | 0.44 | migration z between -2 and 2; enough cells | 1 | 4498 | inactive |
| LURAP1L | 1.47 | migration z between -2 and 2; enough cells | 1.27 | 7388 | inactive |
| HCN1 | 0.1 | migration z between -2 and 2; enough cells | 0.82 | 5863 | inactive |

The list goes on; the last 2 above are carried over.
| gene knocked down | migration robust z-score | migration class with cell-count check | migration relative to mock | nuclei per well, duplicate mean | Outcome |
| --- | --- | --- | --- | --- | --- |
| LURAP1L | 1.47 | migration z between -2 and 2; enough cells | 1.27 | 7388 | inactive |
| HCN1 | 0.1 | migration z between -2 and 2; enough cells | 0.82 | 5863 | inactive |
| CLK1 | 1.97 | migration z between -2 and 2; enough cells | 1.19 | 5118 | inactive |
| RABGAP1L | 2.41 | migration z above 2; enough cells | 1.51 | 5604 | active |
| SLC24A2 | -1.46 | migration z between -2 and 2; enough cells | 0.52 | 3778 | inactive |
| KRTAP12-1 | -1.49 | migration z between -2 and 2; enough cells | 0.5 | 5398 | inactive |
| RFTN2 | -1.18 | migration z between -2 and 2; enough cells | 0.58 | 6764 | inactive |
| FADS3 | 0.38 | migration z between -2 and 2; enough cells | 0.98 | 6764 | inactive |
| TPT1 | -1.54 | migration z between -2 and 2; enough cells | 0.49 | 4668 | inactive |
| ADNP | 2.74 | migration z above 2; enough cells | 1.6 | 6506 | active |
| EXOSC8 | 0.29 | migration z between -2 and 2; enough cells | 0.86 | 4947 | inactive |
| TGM1 | 0.26 | migration z between -2 and 2; enough cells | 0.86 | 5233 | inactive |
| FAM9C | -2.54 | migration z below -2; enough cells | 0.23 | 4386 | active |
| OARD1 | -1.77 | migration z between -2 and 2; enough cells | 0.42 | 5404 | inactive |
| CCNYL1 | 0.52 | migration z between -2 and 2; enough cells | 1.01 | 4818 | inactive |
| LEKR1 | -0.64 | migration z between -2 and 2; enough cells | 0.72 | 6486 | inactive |
